Patent US20090214662A1 (UNIVERSITY OF MARYLAND BALTIMORE, published 2009)
These are yes or no findings as the source states them, for the method shown. Some binding calls cover weakened binding; strength is not graded here.

Amino acid sequences for entries named in this document (tags omitted). A change or cut given only in a name is not applied to a line headed by its entry.
UniProt P02671: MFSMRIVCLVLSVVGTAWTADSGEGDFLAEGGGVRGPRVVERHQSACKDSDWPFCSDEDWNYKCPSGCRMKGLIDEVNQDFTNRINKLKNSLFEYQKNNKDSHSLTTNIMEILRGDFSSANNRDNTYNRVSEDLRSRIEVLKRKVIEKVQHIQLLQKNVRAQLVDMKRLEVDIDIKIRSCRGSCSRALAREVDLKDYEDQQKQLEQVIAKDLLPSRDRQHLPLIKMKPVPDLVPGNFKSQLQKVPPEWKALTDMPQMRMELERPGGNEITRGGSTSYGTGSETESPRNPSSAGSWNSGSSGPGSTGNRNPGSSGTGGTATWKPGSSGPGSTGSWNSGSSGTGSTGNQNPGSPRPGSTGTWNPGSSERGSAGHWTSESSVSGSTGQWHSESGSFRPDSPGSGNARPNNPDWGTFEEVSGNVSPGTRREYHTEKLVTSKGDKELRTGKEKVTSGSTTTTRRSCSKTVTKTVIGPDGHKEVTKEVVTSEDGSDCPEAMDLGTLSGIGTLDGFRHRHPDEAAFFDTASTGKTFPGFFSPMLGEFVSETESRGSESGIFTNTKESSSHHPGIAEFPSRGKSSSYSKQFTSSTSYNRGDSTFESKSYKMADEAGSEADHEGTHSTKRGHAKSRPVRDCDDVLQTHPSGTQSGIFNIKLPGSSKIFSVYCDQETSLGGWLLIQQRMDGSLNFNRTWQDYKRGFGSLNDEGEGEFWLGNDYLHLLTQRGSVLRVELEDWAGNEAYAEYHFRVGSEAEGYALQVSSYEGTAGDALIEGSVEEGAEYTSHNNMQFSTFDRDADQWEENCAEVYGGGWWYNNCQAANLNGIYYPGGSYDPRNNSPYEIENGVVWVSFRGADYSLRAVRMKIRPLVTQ

Target: T1, Lactobacillus brevis ATCC 8287 SlpA surface layer protein (Lactobacillus brevis ATCC 8287) (UniProt Q05044)
T1 sequence (looked up): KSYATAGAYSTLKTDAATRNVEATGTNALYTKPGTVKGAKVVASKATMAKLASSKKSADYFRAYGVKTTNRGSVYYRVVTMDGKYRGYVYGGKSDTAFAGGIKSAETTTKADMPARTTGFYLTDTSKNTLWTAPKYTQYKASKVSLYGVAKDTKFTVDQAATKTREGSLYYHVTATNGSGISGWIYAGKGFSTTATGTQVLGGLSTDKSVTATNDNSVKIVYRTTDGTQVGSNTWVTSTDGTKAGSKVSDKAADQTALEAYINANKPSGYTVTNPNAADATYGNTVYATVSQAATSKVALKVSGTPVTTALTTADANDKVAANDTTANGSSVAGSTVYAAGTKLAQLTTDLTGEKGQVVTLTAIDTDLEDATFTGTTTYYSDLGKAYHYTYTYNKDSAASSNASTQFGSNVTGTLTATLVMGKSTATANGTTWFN
Assay: SPR (BIAcore 3000), SlpA immobilised

How did the binding turn out when “Fibrinogen (human plasma) (from UniProt P02671 20-629; P02675 31-491; P02679 27-453)” was run?
The binding was “binds”.
